In the supplement of paper PMC6411743:
± gives the standard deviation of the averaged measurements. Only a part is listed here, and it is no random draw. Small differences around the control level are noise.

Amino acid sequences for entries named in this document (tags omitted). A change or cut given only in a name is not applied to a line headed by its entry.
UniProt P49815: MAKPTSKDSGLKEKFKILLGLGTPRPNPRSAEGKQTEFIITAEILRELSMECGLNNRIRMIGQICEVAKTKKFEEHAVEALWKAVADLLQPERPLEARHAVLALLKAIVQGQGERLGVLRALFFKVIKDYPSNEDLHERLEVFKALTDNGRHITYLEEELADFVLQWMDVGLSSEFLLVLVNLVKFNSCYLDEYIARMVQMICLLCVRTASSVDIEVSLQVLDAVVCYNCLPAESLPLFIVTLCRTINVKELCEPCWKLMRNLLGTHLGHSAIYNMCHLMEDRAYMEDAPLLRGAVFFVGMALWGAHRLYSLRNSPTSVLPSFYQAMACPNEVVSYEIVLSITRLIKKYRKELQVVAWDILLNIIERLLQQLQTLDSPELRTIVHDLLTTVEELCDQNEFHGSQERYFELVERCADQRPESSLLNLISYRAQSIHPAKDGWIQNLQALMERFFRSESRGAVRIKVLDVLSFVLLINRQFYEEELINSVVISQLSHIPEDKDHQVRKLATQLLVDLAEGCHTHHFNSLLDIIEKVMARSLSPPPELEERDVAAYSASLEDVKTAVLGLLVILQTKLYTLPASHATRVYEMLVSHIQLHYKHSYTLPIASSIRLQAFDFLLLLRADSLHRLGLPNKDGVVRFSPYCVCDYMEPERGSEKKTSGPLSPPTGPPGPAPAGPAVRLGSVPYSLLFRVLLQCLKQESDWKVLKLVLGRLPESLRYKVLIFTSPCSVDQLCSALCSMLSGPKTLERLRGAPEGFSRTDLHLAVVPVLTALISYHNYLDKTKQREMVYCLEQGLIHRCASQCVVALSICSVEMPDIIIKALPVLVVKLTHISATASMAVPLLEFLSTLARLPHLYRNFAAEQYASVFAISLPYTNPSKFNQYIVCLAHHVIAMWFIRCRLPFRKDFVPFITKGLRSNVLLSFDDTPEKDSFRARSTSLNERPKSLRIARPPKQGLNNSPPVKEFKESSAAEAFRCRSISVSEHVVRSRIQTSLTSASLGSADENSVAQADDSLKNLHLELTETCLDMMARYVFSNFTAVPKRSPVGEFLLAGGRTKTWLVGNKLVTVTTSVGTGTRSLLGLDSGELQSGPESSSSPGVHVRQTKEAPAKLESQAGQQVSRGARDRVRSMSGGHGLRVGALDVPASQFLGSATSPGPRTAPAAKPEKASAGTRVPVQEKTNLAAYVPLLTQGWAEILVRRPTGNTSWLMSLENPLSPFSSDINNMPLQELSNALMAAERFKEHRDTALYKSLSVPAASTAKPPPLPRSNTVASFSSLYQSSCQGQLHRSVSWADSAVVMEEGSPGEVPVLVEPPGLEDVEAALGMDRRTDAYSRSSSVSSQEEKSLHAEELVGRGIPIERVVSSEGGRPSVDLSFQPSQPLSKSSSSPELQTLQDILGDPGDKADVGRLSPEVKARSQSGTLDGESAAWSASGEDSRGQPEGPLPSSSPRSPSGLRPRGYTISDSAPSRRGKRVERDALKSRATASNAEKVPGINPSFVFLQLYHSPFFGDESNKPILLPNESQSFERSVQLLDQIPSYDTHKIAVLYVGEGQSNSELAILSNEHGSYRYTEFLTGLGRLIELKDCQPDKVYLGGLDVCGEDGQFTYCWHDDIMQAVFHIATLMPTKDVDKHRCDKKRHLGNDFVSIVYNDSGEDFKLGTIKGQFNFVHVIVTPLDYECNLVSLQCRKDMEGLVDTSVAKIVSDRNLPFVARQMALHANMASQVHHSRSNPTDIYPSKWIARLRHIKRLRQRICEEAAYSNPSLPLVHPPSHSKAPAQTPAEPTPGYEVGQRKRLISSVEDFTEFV
UniProt Q9Y580: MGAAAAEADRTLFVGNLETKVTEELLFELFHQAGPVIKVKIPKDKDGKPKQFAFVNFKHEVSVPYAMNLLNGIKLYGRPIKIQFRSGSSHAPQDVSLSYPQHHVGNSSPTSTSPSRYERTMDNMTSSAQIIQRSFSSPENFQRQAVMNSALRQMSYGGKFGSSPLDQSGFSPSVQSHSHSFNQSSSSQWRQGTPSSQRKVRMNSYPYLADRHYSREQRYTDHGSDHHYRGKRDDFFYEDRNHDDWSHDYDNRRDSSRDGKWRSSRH
UniProt Q03164, whole entry: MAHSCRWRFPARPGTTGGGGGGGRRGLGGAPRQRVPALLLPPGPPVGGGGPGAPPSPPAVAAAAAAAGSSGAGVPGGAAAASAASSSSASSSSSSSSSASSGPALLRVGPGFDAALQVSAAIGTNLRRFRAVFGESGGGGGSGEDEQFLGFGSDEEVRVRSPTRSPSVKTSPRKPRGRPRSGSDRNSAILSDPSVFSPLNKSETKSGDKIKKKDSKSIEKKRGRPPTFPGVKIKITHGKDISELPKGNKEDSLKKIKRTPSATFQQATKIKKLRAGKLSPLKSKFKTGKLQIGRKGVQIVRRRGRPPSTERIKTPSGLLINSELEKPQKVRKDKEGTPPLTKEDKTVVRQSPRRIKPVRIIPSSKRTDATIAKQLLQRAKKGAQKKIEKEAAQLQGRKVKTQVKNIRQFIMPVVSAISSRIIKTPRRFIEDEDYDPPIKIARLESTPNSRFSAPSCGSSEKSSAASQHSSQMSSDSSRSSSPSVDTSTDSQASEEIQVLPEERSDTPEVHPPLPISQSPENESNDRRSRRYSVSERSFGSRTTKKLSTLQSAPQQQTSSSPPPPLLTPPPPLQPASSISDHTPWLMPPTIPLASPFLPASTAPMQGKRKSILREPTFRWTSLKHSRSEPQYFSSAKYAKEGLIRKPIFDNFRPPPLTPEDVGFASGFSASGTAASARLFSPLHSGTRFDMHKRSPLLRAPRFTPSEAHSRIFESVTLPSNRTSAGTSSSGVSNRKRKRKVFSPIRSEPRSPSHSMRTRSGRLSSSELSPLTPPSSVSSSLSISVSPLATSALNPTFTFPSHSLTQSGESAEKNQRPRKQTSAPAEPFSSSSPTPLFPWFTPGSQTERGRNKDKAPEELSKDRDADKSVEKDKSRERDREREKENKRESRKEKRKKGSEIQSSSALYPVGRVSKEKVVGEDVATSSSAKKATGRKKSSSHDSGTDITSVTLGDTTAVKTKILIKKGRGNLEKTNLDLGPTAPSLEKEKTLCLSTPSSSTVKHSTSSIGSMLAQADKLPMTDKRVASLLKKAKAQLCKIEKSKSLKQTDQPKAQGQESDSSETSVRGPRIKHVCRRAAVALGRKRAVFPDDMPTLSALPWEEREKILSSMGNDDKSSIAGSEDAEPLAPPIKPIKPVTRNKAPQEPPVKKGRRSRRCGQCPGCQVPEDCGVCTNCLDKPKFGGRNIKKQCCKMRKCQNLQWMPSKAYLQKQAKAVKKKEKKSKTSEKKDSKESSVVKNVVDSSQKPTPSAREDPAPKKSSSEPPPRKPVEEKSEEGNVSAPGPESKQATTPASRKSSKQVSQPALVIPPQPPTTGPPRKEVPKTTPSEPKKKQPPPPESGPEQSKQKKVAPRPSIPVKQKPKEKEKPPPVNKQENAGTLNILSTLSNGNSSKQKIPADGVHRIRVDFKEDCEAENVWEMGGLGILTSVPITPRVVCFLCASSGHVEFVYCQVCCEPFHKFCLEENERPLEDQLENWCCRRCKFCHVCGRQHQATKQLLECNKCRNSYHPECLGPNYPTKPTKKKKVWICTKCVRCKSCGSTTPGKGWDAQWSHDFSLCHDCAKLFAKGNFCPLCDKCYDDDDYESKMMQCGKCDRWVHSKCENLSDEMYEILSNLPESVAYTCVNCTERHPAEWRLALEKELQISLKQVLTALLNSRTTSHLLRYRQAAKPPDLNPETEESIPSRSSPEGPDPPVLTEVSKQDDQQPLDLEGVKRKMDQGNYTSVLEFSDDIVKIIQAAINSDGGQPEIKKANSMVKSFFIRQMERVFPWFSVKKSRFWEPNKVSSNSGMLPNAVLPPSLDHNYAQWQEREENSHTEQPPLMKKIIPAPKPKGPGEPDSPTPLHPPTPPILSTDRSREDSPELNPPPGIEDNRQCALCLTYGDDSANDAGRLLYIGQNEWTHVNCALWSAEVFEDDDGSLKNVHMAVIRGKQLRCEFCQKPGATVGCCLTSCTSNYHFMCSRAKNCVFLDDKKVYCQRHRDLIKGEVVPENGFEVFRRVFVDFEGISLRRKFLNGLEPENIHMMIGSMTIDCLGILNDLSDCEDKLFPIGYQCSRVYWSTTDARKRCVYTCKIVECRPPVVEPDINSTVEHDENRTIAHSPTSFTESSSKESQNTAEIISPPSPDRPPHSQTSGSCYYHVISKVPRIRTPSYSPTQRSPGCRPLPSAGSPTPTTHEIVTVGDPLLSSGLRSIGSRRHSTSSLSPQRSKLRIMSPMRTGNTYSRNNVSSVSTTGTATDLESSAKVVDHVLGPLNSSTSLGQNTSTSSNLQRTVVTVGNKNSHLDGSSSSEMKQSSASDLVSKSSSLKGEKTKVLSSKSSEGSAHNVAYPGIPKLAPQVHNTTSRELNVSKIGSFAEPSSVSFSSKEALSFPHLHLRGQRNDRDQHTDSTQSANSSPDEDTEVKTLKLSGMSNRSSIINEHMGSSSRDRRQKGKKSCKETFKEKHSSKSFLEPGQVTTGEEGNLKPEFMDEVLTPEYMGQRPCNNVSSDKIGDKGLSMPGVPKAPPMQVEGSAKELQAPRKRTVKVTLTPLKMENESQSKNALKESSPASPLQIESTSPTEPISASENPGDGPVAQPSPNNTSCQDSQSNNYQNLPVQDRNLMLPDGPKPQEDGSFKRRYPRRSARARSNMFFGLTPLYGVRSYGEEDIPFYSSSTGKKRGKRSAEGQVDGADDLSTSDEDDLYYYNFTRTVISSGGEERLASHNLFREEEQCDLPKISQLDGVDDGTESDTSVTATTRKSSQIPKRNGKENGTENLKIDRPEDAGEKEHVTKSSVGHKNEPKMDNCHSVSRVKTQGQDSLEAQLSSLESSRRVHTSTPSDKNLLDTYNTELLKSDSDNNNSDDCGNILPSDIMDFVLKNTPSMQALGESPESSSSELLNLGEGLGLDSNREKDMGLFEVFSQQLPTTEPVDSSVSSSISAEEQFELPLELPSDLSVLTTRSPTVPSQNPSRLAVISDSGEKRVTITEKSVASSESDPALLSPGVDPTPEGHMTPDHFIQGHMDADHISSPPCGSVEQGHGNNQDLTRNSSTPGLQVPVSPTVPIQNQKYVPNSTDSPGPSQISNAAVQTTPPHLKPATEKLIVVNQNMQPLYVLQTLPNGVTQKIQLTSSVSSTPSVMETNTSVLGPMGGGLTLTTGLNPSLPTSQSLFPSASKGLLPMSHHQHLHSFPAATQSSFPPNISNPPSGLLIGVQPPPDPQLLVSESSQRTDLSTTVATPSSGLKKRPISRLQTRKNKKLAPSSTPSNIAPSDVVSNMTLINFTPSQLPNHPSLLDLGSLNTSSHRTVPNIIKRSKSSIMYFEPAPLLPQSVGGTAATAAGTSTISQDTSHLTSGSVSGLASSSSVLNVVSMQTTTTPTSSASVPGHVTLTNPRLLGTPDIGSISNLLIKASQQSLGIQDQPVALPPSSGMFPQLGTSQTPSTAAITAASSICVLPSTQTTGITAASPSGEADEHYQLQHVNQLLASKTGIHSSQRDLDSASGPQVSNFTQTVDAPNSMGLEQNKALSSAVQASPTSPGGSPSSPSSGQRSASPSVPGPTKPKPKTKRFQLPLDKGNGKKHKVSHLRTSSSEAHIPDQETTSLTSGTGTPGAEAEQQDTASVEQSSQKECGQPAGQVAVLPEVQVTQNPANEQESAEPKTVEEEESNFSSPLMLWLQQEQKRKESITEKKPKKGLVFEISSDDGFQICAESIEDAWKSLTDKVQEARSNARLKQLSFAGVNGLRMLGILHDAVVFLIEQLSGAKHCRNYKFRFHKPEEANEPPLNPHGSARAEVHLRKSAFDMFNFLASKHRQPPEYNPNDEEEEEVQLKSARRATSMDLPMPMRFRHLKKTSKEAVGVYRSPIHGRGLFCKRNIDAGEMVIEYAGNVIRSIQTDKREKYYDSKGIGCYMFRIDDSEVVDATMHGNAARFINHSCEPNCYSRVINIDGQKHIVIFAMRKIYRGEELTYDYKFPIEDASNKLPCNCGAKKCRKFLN
UniProt Q96K21: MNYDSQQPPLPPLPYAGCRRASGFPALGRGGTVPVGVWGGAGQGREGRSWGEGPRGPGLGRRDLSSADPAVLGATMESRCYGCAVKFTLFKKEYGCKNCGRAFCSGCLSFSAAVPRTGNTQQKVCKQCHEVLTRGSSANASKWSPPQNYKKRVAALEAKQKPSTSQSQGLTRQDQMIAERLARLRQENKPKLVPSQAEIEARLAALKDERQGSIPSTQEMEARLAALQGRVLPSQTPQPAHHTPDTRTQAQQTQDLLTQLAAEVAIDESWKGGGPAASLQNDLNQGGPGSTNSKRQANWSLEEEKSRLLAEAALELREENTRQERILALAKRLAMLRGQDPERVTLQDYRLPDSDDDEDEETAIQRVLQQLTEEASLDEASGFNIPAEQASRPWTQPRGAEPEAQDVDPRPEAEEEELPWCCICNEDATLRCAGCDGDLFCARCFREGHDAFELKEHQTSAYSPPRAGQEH

Compound: Nc1ncnc2c1ncn2[C@@H]1O[C@H](COP(=O)(O)OP(=O)(O)OP(=O)(O)O)[C@@H](O)[C@H]1O [adenosine triphosphate]
Test: NP40-soluble protein abundance relative to vehicle (solubility fold change) (ratio); higher = more soluble protein in presence of ATP
Details: concentration: 0.5mM
Summary of the method: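 Eight concentrations, 0.1 to 10 mM, were tested on Jurkat crude lysate for 10 min at room temperature and then 3 min at 37 °C, in three independent experiments. The lysate was solubilised with 0.8% NP40 and benzonase, ultracentrifuged, and the supernatant TMT-labelled for LC-MS/MS. Each value is the fold change against the detergent-processed vehicle in its own replicate, from vsn-normalised intensities.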

Target	NP40-soluble protein abundance
H7BYT1 and related entries (UniProt P48730)	1.14 ± 0.18
K7EP14 and related entries (UniProt P07992)	0.946 ± 0.038
J3KNF5 and related entries (UniProt O15078)	0.966 ± 0.049
H0YEH1 and related entries (UniProt Q13492)	0.951 ± 0.051
H3BMQ0 and related entries (UniProt P49815)	1.04 ± 0.048
J3KPD3 and related entries (UniProt Q9Y580)	0.951 ± 0.068
K7ELC7 and related entries (UniProt P61353)	0.948 ± 0.056
J3QSH4 and related entries (UniProt Q14119)	0.994 ± 0.058
J3QR07 and related entries (UniProt Q96MU7)	0.952 ± 0.031
J3KS22 and related entries (UniProt Q7Z4W1)	0.977 ± 0.02
J3KQ48 and related entries (UniProt Q9Y3E5)	1.02 ± 0.03
H3BMM9 and related entries (UniProt Q15287)	1.3 ± 0.18
M0QYA8 and related entries (UniProt Q8IV63)	1.32 ± 0.018
J3KNP4 and related entries (UniProt Q9NPR2)	0.955 ± 0.046
J3QQJ0 and related entries (UniProt Q9UHR5)	0.899 ± 0.02
H0YEU4 and related entries (UniProt Q03164)	1.07 ± 0.047
J3KNV1 and related entries (UniProt O60281)	1.02 ± 0.019
H3BRF9 and related entries (UniProt Q96K21)	0.923 ± 0.03
M0QXZ5 and related entries (UniProt Q96B54)	0.975 ± 0.19
H7BZB3 and related entries (UniProt P27708)	0.991 ± 0.062

Reprinted from the listing (6 entries):
Target	NP40-soluble protein abundance
J3QR07 and related entries (UniProt Q96MU7)	0.952 ± 0.031
J3KS22 and related entries (UniProt Q7Z4W1)	0.977 ± 0.02
J3KQ48 and related entries (UniProt Q9Y3E5)	1.02 ± 0.03
H3BMM9 and related entries (UniProt Q15287)	1.3 ± 0.18
M0QYA8 and related entries (UniProt Q8IV63)	1.32 ± 0.018
J3KNP4 and related entries (UniProt Q9NPR2)	0.955 ± 0.046
